Data published in PubChem BioAssay AID493014 (National Center for Advancing Translational Sciences (NCATS), 2011).
Screen size: about 340,000 compounds; about 170 (0.05%) were called active. The shares of active, inactive and inconclusive entries below differ from those in the screen. The call rests on the fitted dose curve; in most records, active means well fitted inhibition curve with a large enough effect in the signal ratio, with a control signal flat (not every such curve was filed as active); inconclusive means small, poorly fitted or top-dose-only effect, or effect the other way, or a change in a side signal; inactive means flat fitted curve, though single readings scatter; the % refers to the signal ratio. Potencies beside an inconclusive call are fits to weak or partial responses and may not hold up.

experiment: qHTS Assay to Find Inhibitors of Chronic Active B-Cell Receptor Signaling; settings: ABC-DLBCL IkBa-CBG/CBR reporter, luminescence ratio (green luciferase fused to IkBa over red control in TMD8 lymphoma cells), 4 h; activity change, negative = inhibition: at 46.1 µM (top of the series);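 on activity change, negative = inhibition: plate controls were basal doxycycline-induced cells for no effect and cells given 10 µM MG132 for full effect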
In short: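 Doxycycline induced both beetle luciferases in TMD8 lymphoma cells; IKK-driven degradation limits the IkappaBalpha-fused green signal, while red luminescence normalises for cell number and nonspecific effects. Compounds tested up to 46 uM, 4 hrs.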
Potency means the concentration at half of the fitted maximal effect.

SMILES | Potency | activity change, negative = inhibition
CCOC(=O)N1CCc2c(sc(NCc3cccc(F)c3)c2C(=O)Nc2ccc(OCC)cc2)C1 | inconclusive: 35.5 µM [falling, single point] | 
CC1(C)CC2CC(C)(CN2C(=O)c2ccc([N+](=O)[O-])cc2[N+](=O)[O-])C1 (stereo unspecified) |  | inactive
COc1ccc(C(=O)NCCNc2nc3cc(C)c(C)cc3cc2C)cc1 |  | inconclusive: 1.97%
O=C(Nc1nnc(-c2cccs2)o1)c1cccc(C(F)(F)F)c1 |  | inconclusive: 298% [cytotoxic]
O=C(CNC(=O)c1ccc(Br)o1)Nc1ncccc1O | inconclusive: 11.6 µM [falling, partial curve, poor fit] | 
COc1ccc(CC(=O)N(C)CC(=O)Nc2c(C)cccc2C)cc1S(=O)(=O)N1CCOCC1 |  | inconclusive: 2.56%
CSc1ccc(Cl)c(C(=O)Nc2nccs2)c1 |  | inconclusive: 0.218%
COC(=O)c1ccc(C(=O)Nc2ccc3nc(-c4cccnc4)[nH]c3c2)cc1 |  | inactive
CSCCC(NC(=O)OC(C)(C)C)C(=O)Oc1ccc2c(=O)c(-c3ccc4c(c3)OCCO4)coc2c1 (stereo unspecified) | inconclusive: 6.31 µM [falling, partial curve] | 
COCCNC(=O)C(c1cccs1)N(CCc1ccccc1)C(=O)Cn1nnc2ccccc21 (stereo unspecified) |  | inconclusive: -6%
N#CC1=C(N)NC(SCC(=O)Nc2ccc(Br)cc2)=C(C#N)C12CCCCC2 |  | inconclusive: -14.7%
O=C(O)CCC(=O)/C=C/c1ccccc1 |  | inconclusive: -28.4%
CC(OC(=O)C1CCN(c2ccc(C(F)(F)F)cn2)CC1)C(=O)Nc1cccc([N+](=O)[O-])c1 (stereo unspecified) |  | inconclusive: -0.501%
O=C1N2c3ccccc3CCc3cccc(c32)C1(O)C(F)(F)F (stereo unspecified) |  | inconclusive: 5.85%
O=C(CN1CCN(C(=O)c2ccco2)CC1)Nc1cc(C(F)(F)F)ccc1Cl |  | inactive
O=c1[nH]c2ccccc2c(O)c1Cc1ccccc1 |  | inconclusive: 12.7%
CCOC(=O)CNC(=O)c1sc(NC(=O)c2ccccc2F)nc1C | inconclusive: 10 µM [falling, partial curve] | 
COc1ccc(NC(=O)c2cccnn2)cc1 |  | inconclusive: -2.08%
O=C(NC(=S)Nc1ccc(N2CCCCC2)cc1)c1cccs1 |  | inconclusive: 20.4%
O=[N+]([O-])c1cccc(/C=N/N=C\c2ccccc2)c1 |  | inconclusive: 2.34%
CCn1c(/C=C2\C(=O)N(C(C)C)c3ccccc32)nc2ccccc2c1=O |  | inconclusive: 0.415%

SMILES | Potency | activity change, negative = inhibition
O=C(NC1CCCCC1)C(c1ccc2ncccc2c1)N(Cc1ccccc1)C(=O)c1cccs1 (stereo unspecified) |  | inactive
C=CCn1c(NC(=O)c2ccc(C)cc2)nc2ccccc21 |  | inactive
COC(=O)c1ccc2nc(NC(=O)C3CCCCC3)sc2c1 | inconclusive: 20 µM [falling, partial curve, poor fit] | 
Cc1cc(OCC(=O)Nc2ccc3oc(=O)ccc3c2)ccc1Cl |  | inconclusive: -3.38%
Cc1noc(NC(=O)c2ccc(Cl)cc2)c1Cl |  | inconclusive: 8.21%
O=C(NCCCN1CCCC1=O)c1cc(NS(=O)(=O)c2ccc(F)cc2)cc(NS(=O)(=O)c2ccc(F)cc2)c1 |  | inactive
O=C(N/C=C/c1ccc(Cl)cc1)NCc1ccc(Cl)cc1 |  | inconclusive: -15.9%
O=C(C[C@H]1C[C@H](C(=O)N2CCOCC2)[C@@]2(CCC3CCCC3)c3[nH]c4ccc(Cl)cc4c3CCN2C1=O)NCCCn1ccnc1 |  | inconclusive: -21%
CC(=O)OCCCNc1cc(Sc2nc3ccccc3s2)c2nonc2c1[N+](=O)[O-] |  | inactive
O=C(Nc1nnc(Cc2ccc([N+](=O)[O-])cc2)s1)Nc1ccccc1F |  | inconclusive: 14.5%
O=C(CSc1nnc(-c2cccs2)o1)c1cccs1 |  | inconclusive: -1.2%
O=C(c1cccs1)N1CCCC(c2nc3c(nnn3Cc3ccccc3)c(=O)[nH]2)C1 (stereo unspecified) |  | inconclusive: 7.14%
Cn1c(N2CCOCC2)nc2c1c(=O)n(Cc1ccc(Cl)c(Cl)c1)c(=O)n2C |  | inconclusive: 3.62%
CN(C)S(=O)(=O)c1ccc(NC(=O)COC(=O)c2ccccn2)cc1 |  | inconclusive: -7.34%
CCn1c(=O)n(CC)c2cc(NC(=O)c3ccccc3Cl)ccc21 | inconclusive: 17.8 µM [falling, partial curve] | 
CCOC(=O)Cc1csc(NC(=O)C(NC(=O)C2CCC(C)CC2)C(C)C)n1 (stereo unspecified) |  | inconclusive: -11.3%
CCOc1ccc(-c2n[nH]c(C(=O)NN)c2C)cc1 |  | inactive
Cc1ccc[n+](/C(=C\C(=C=[N-])C#N)C(=O)c2ccc(Cl)cc2)c1 |  | inactive
CCC(C)C(NC(=O)C1CCC(C)CC1)C(=O)Nc1ccc(OC)cc1OC (stereo unspecified) |  | inconclusive: 7.84%
CCn1c(=O)c(C(=O)NC(C)C)c(O)c2ccccc21 |  | inconclusive: 21.9%
O=C(Nc1ccc2c(c1)OCCO2)c1cc2sccc2n1Cc1ccccc1 |  | inconclusive: 27.3%

Look-ups from the entries so far:
Potency with CCn1c(=O)n(CC)c2cc(NC(=O)c3ccccc3Cl)ccc21 is entered as inconclusive: 17.8 µM [falling, partial curve]
activity change, negative = inhibition with Cc1ccc[n+](/C(=C\C(=C=[N-])C#N)C(=O)c2ccc(Cl)cc2)c1 is entered as inactive
activity change, negative = inhibition with O=C(CSc1nnc(-c2cccs2)o1)c1cccs1 is entered as inconclusive: -1.2%
activity change, negative = inhibition with Cn1c(N2CCOCC2)nc2c1c(=O)n(Cc1ccc(Cl)c(Cl)c1)c(=O)n2C is entered as inconclusive: 3.62%

Next part

SMILES | Potency | activity change, negative = inhibition
Clc1ccc2[nH]c3c(NCCCN4CCOCC4)ncnc3c2c1 | inconclusive: 35.5 µM [rising, partial curve, poor fit] | 
COc1ccccc1C(=O)C1CCCN(C(=O)Nc2ccccc2F)C1 (stereo unspecified) | inconclusive: 15.8 µM [falling, partial curve, poor fit] | 
Cc1ccc(/C=C/C(=O)Nc2nccs2)o1 |  | inconclusive: -11%
CCn1c(SCC(=O)n2c(C)c(C)c3ccccc32)nnc1-c1ccco1 |  | inconclusive: 8.52%
S=c1nc(-c2cc(Cl)ccc2Cl)[nH][nH]1 | inconclusive: 14.1 µM [falling, partial curve, poor fit] | 
NC(=O)CC(NC(=O)c1ccc(Br)cc1)c1ccc(N2CCN(c3ccc(F)cc3)CC2)c([N+](=O)[O-])c1 (stereo unspecified) |  | inconclusive: -16.7%
Cc1cccc(Cn2nc(C(C)(C)C)cc2C(=O)N2CCOCC2)c1 |  | inactive
COc1ccc2nc(-n3c(O)c(C4=c5ccccc5=NC4=O)[nH]c3=S)sc2c1 |  | inconclusive: -8.6%
COc1cc(N=Nc2cccc(S(N)(=O)=O)c2)c2ccccc2c1N | inconclusive: 25.1 µM [rising, partial curve, poor fit] | 
COc1ccccc1NS(=O)(=O)c1ccc(C(=O)NCC2(N(C)C)CCCCC2)cc1 |  | inactive
Cc1nc2ccc(-c3nc4ccc(N)cc4[nH]3)cc2[nH]1 | inconclusive: 15.8 µM [falling, partial curve] | 
c1csc(C2=Nn3c(nnc3-c3ccncc3)SC2)c1 |  | inconclusive: 22.9%
O=C(CNC(=O)c1ccccc1O)N/N=C/c1cc(Br)ccc1OC(=O)/C=C/c1ccco1 | inconclusive: 4.47 µM [falling, partial curve, poor fit] | 
Cc1ccc(C(=O)C2CCN(CC(=O)Nc3ccc(N(C)C)cc3)CC2)cc1 |  | inactive
COc1cc(-c2nn3c(COc4ccccc4)nnc3s2)cc(OC)c1OC |  | inconclusive: -4.44%
CCCCn1c(-c2ccc(F)c(F)c2)nc2cc3[nH]c(=O)c(C(C)C)nc3cc21 |  | inconclusive: 21.3%
COc1ccc(-c2nnc(Nc3ccc(OC)c(C(=O)N4CCCCC4)c3)c3ccccc23)cc1 |  | inconclusive: 0.812%
CC(C)c1ccc(NC(=S)Nc2ccc3cn[nH]c3c2)cc1 |  | inactive
CCCCn1c(N)c(N(CCOC)C(=O)CN2c3ccccc3CC2C)c(=O)[nH]c1=O (stereo unspecified) |  | inconclusive: -0.187%
CCN(CC)CCCn1c2c(c(SCC(=O)Nc3ccc(OC(F)(F)F)cc3)nc1=O)CCC2 | inconclusive: 6.51 µM [falling, partial curve, poor fit] | 
CCN(CC)c1ccc(S(=O)(=O)N(CC)CC)cc1NC(=O)C1CCCC1 |  | inconclusive: 2.74%

SMILES | Potency | activity change, negative = inhibition
NC1=NC(=O)/C(=C/c2ccc(Cl)cc2Cl)S1 |  | inconclusive: -0.104%
O=C(NCc1ccco1)C(Cc1ccccc1)N1C(=O)C2C3C=CC(C3)C2C1=O (stereo unspecified) |  | inconclusive: 17%
COc1ccccc1N(CC(=O)N1CCCCC1)S(=O)(=O)c1ccccc1 |  | inconclusive: 15%
Cc1ccc(C)c(-c2nnc(NC(=O)c3ccco3)o2)c1 | inconclusive: 20.6 µM [falling, single point] | 
O=C(Nc1cccc(-c2ccc(N3CCOCC3)nn2)c1)c1ccccc1 |  | inactive
Cc1cc(C)n(C(=O)C2CCCN2S(=O)(=O)c2ccc(Cl)cc2)n1 (stereo unspecified) |  | inactive
O=C(Cn1nc(-c2cccc(Cl)c2)ccc1=O)Nc1ccc(C(=O)NC2CC2)cc1 |  | inconclusive: 0.158%
CC(/C=N/Nc1nc2ccccc2[nH]1)=C\c1ccccc1 | inconclusive: 18.4 µM [falling, single point] | 
Cc1ccc(-n2ncc(N(C)C)c(Cl)c2=O)cc1 |  | inactive
CC(C)OP(=O)(c1ccc(N(C)C)cc1)C(Nc1ccccc1)c1cccnc1 (stereo unspecified) |  | inactive
CC1(C)NC(=O)N(CC(O)CN(c2ccccc2)S(=O)(=O)c2ccccc2[N+](=O)[O-])C1=O (stereo unspecified) |  | inconclusive: -14.6%
Cc1nnc(SCC(=O)c2c(N)n(C)c(=O)n(C)c2=O)n1Cc1ccccc1 |  | inactive
O=C(OCC(=O)N1CCCC1=O)c1nc(Cl)c(Cl)c(Cl)c1Cl |  | inactive
O=C(CCl)Nc1cccc(Oc2ccccc2)c1 | inconclusive: 35.5 µM [falling, single point] | 
O=C(c1ccco1)N1CCN(C(=O)C2CCN(S(=O)(=O)c3cccs3)CC2)CC1 |  | inconclusive: -3.76%
Nc1nnc(CSCc2ccccc2Cl)s1 |  | inactive
Cc1cc(C(=O)CN2C(=O)c3cccc(N)c3C2=O)c(C)n1Cc1cccs1 |  | inactive
COc1ccc(CN(Cc2ccco2)S(=O)(=O)c2ccc(S(=O)(=O)N3CCCC3)cc2)cc1 |  | inconclusive: -0.483%
